Results: PMC7819943, “Rice protein-binding microarrays: a tool to detect cis-acting elements near promoter regions in rice”
This is one part of the list.

target: T1, OsSMF1 (Oryza sativa, UniProt Q6ZLB0 1-436); experiment: protein-binding microarray (RPBM); PBS, 2% BSA, 51.3 ng/ul salmon testes DNA, 50 uM zinc acetate, 200 nM TF, 25 C, 1 h; high values mean tight binding; conditions: protein: recombinant; tags: N-terminal polyhistidine and DsRed monomer fusion (pET32a); chain copies: 2; label: CyDye5-dUTP incorporated in the synthesized complementary strand; 3' TTTTT single-stranded linker to array surface; dsDNA, one strand shown
T1 sequence: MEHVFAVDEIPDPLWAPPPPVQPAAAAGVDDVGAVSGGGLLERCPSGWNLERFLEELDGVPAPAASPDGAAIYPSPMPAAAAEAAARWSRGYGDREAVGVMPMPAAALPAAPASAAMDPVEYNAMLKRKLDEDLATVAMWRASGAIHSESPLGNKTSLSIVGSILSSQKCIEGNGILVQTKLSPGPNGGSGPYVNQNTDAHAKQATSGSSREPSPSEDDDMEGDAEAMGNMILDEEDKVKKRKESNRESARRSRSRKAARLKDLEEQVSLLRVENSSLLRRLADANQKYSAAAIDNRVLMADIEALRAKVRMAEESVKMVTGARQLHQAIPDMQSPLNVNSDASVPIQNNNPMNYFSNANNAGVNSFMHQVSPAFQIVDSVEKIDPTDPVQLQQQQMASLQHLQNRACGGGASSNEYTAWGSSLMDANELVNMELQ
Method in brief: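 Ni–NTA purification followed expression in E. coli BL21-CodonPlus of transcription factors fused N-terminally to a polyhistidine tag and DsRed. At 200 nM in PBS with 2% BSA, salmon testes DNA and 50 µM zinc acetate, the protein was incubated for 1 h at 25 °C with a custom Agilent array that had been primer-extended with Cy5-dUTP and blocked with 2% BSA. After washing, the array was read on an Axon 4000B scanner. The binding signal is per-feature fluorescence intensity in arbitrary units.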

Q: How did the binding signal turn out when “CCAGACACCAAGTGACCGAGAGATAAGGCTCATACAGGCACGGAGTCACCTAGTGCAG” was run?
A: The binding signal was 16100 fluorescence intensity (a.u.).

Q: For “AGAGTGAGAGTTTTACAGTCAAGTAATGCGTGGCAAGCCACGGAGTCACCTAGTGCAG”, which binding signal is on record?
A: The binding signal was 6540 fluorescence intensity (a.u.).

Q: How did the binding signal turn out when “TGATACACACGCACGCACGCACGCACACGTACACACACAACGGAGTCACCTAGTGCAG” was run?
A: Its binding signal is 3880 fluorescence intensity (a.u.).

Q: With “AAAAGTCTTTTGCTTCGCTGAAAGCACCATTCTTCTCCAACGGAGTCACCTAGTGCAG” as the sequence, how does the binding signal read?
A: Its binding signal is 35600 fluorescence intensity (a.u.).

Q: For “AAGCTTCTAGGAGTATTGCGTACTACTCCGTAGTAGAGTGCGGAGTCACCTAGTGCAG”, which binding signal is on record?
A: Its binding signal is 3510 fluorescence intensity (a.u.).

Q: How did the binding signal turn out when “ATTTGCAGCTCGACCTTTGAAGTCGTTGCTACGTGGAGTACGGAGTCACCTAGTGCAG” was run?
A: Its binding signal is 5270 fluorescence intensity (a.u.).

Q: For “TCCCAAATTCCGATTTCTCACTGATGGTACCCTCATTTGTCGGAGTCACCTAGTGCAG”, which binding signal is on record?
A: Its binding signal is 3200 fluorescence intensity (a.u.).

Q: For “TCAACAACCATCTTCACGTGCTATAGGTTAGCTGTCAGATCGGAGTCACCTAGTGCAG”, which binding signal is on record?
A: Its binding signal is 3520 fluorescence intensity (a.u.).

Q: For “GTCGTTGTGTGCGTGCATGGCACTGTTGATGTCGAGTATACGGAGTCACCTAGTGCAG”, which binding signal is on record?
A: Its binding signal is 3200 fluorescence intensity (a.u.).

Q: “TAATGCTTCATGCATGTGTTCAAAGATTCGATGTGATGTTCGGAGTCACCTAGTGCAG” was tested. Which binding signal did it give?
A: The binding signal was 23900 fluorescence intensity (a.u.).

Q: “GTATCAGGATTTCAATCCTGGTGGGTGGAGTCATGCATCTCGGAGTCACCTAGTGCAG” was tested. Which binding signal did it give?
A: The binding signal was 3640 fluorescence intensity (a.u.).

Q: Which binding signal does the source give for “TTTGCTAGAAGCTCCTTAGAAGTTATTATGACTTGGGACGCGGAGTCACCTAGTGCAG” here?
A: Its binding signal is 3230 fluorescence intensity (a.u.).

Q: Which binding signal does the source give for “CGGCAGGTACACCGTGTACAACTACGCCGGCGTGCTGTGGCGGAGTCACCTAGTGCAG” here?
A: Its binding signal is 3930 fluorescence intensity (a.u.).

Q: How did the binding signal turn out when “GCCCGCAAACTCGGGGTTTCCCCGTCACGCCAGCCGCCCACGGAGTCACCTAGTGCAG” was run?
A: The binding signal was 4970 fluorescence intensity (a.u.).

Q: With “GTTAACACCACAATGAATTATCAAATCCCAAATGGTACTGCGGAGTCACCTAGTGCAG” as the sequence, how does the binding signal read?
A: The binding signal was 4210 fluorescence intensity (a.u.).

Q: How did the binding signal turn out when “GTTCTAGCGTGGTCACGACGTGACGTTCCCACGTTCGTCTCGGAGTCACCTAGTGCAG” was run?
A: Its binding signal is 7140 fluorescence intensity (a.u.).

Q: With “GCGTGCCGGGGTTGGGGCTGGCTGTACATACAAATCTTACCGGAGTCACCTAGTGCAG” as the sequence, how does the binding signal read?
A: The binding signal was 3790 fluorescence intensity (a.u.).

Q: “GGCAAAACACGGCACGCCACGCCAATACGTGCGCGCGTCCCGGAGTCACCTAGTGCAG” was tested. Which binding signal did it give?
A: Its binding signal is 3850 fluorescence intensity (a.u.).

Q: For “GGACTAAAGATGGCTCAACCGGCCACGTGGTTGAGCGATCCGGAGTCACCTAGTGCAG”, which binding signal is on record?
A: The binding signal was 8320 fluorescence intensity (a.u.).

Q: For “AAAGTAGTTTCTGCACGTAAATCGGACGCTGACGTCAGCGCGGAGTCACCTAGTGCAG”, which binding signal is on record?
A: The binding signal was 36600 fluorescence intensity (a.u.).

Q: For “CTGACAGCAAAAGGCCACACTCCTCACAAATCTCGTGCGCCGGAGTCACCTAGTGCAG”, which binding signal is on record?
A: The binding signal was 3830 fluorescence intensity (a.u.).

Q: Which binding signal does the source give for “TGTTCCCCTGCTGCATGCATGCATCGCCCCGCCCTGACCACGGAGTCACCTAGTGCAG” here?
A: Its binding signal is 15700 fluorescence intensity (a.u.).

Q: With “ATTTGTTGGGCTCTGTGGTTGAGTAGGAATGATATGATTTCGGAGTCACCTAGTGCAG” as the sequence, how does the binding signal read?
A: The binding signal was 3390 fluorescence intensity (a.u.).

Q: With “TTAAGGGCAAGTTTTACAGTGGATGTGAATGCCACATCTACGGAGTCACCTAGTGCAG” as the sequence, how does the binding signal read?
A: The binding signal was 3220 fluorescence intensity (a.u.).

Q: “TGACCAGATCAGCGACCACCCCATGGTGATGCACTCGTCACGGAGTCACCTAGTGCAG” was tested. Which binding signal did it give?
A: Its binding signal is 3200 fluorescence intensity (a.u.).

Q: Which binding signal does the source give for “ATATATACTCCAAGCTCGGTGAGCCAGCATCACCACCAACCGGAGTCACCTAGTGCAG” here?
A: Its binding signal is 3220 fluorescence intensity (a.u.).

Q: “GCAACCGGTGAATCCGAAGCGAGGAAGGAGAGATGGCGAGCGGAGTCACCTAGTGCAG” was tested. Which binding signal did it give?
A: The binding signal was 6720 fluorescence intensity (a.u.).

Q: Which binding signal does the source give for “ACGACGACGACGACGACGCAACCCCGCGGCGCGCGCCGGCCGGAGTCACCTAGTGCAG” here?
A: Its binding signal is 3160 fluorescence intensity (a.u.).

Q: How did the binding signal turn out when “TTCACTTAAACGGCGTCATCGTCCCATGTTATACTATCACCGGAGTCACCTAGTGCAG” was run?
A: The binding signal was 3620 fluorescence intensity (a.u.).

Q: For “AGTAAAATCAATCTATATATGAAGTATGCCTAGAGTATTGCGGAGTCACCTAGTGCAG”, which binding signal is on record?
A: The binding signal was 3300 fluorescence intensity (a.u.).

Q: “TGGCGTGGACTTCAGGTGTCATCGTCTCTCTCTTCTGTCCCGGAGTCACCTAGTGCAG” was tested. Which binding signal did it give?
A: Its binding signal is 3900 fluorescence intensity (a.u.).

Q: How did the binding signal turn out when “CATATCGCGAACAAATATATGTAATAGTGTGAATGACAGGCGGAGTCACCTAGTGCAG” was run?
A: Its binding signal is 3410 fluorescence intensity (a.u.).

Q: “CGGCAGGATGACGTGGAGTGTGACACGCGCGCCACGTAGGCGGAGTCACCTAGTGCAG” was tested. Which binding signal did it give?
A: Its binding signal is 21000 fluorescence intensity (a.u.).

Q: With “CATGTAACTCGCATATTCCCTGTCCTTAGCTGAGTCAACACGGAGTCACCTAGTGCAG” as the sequence, how does the binding signal read?
A: Its binding signal is 6490 fluorescence intensity (a.u.).

Q: With “CGTGTGTAACTTTGGAACCTGCCACGGGAGAGCGAATTCCCGGAGTCACCTAGTGCAG” as the sequence, how does the binding signal read?
A: The binding signal was 25500 fluorescence intensity (a.u.).

Q: How did the binding signal turn out when “TAAGTTGTCAGACGTGGCAAAACTATCTTTATTCTTATCCCGGAGTCACCTAGTGCAG” was run?
A: Its binding signal is 11500 fluorescence intensity (a.u.).

Q: Which binding signal does the source give for “GGTACTGACATTAGCAGCAGTTACATCCATTATCCCTGTGCGGAGTCACCTAGTGCAG” here?
A: Its binding signal is 3260 fluorescence intensity (a.u.).

Q: How did the binding signal turn out when “TAAGCTTTCTATAAAAGATCCATGTCAGCATATTTTCCTACGGAGTCACCTAGTGCAG” was run?
A: Its binding signal is 7260 fluorescence intensity (a.u.).

Q: “CGGCGAGCATTGTTGACGCGTTTTCGCCATGCGTGCAGTTCGGAGTCACCTAGTGCAG” was tested. Which binding signal did it give?
A: The binding signal was 3590 fluorescence intensity (a.u.).

Q: Which binding signal does the source give for “CTGGGAGGGAGGGGAGGGAGCGCCGCCTTTGCCACTATCGCGGAGTCACCTAGTGCAG” here?
A: Its binding signal is 4880 fluorescence intensity (a.u.).

Q: For “CATCCAGTGTAGTAGTATACTAGTATGAGTAGGCTTGGTACGGAGTCACCTAGTGCAG”, which binding signal is on record?
A: Its binding signal is 3690 fluorescence intensity (a.u.).

Q: For “CTTTCCCTTGCTCGTGTCGCCATGTAGGCTGTTGAGTTGGCGGAGTCACCTAGTGCAG”, which binding signal is on record?
A: Its binding signal is 3150 fluorescence intensity (a.u.).

Q: “CCACCCTCTCACAGCACAGCAATTGCATAGCTTTCCAATTCGGAGTCACCTAGTGCAG” was tested. Which binding signal did it give?
A: Its binding signal is 25000 fluorescence intensity (a.u.).

Q: Which binding signal does the source give for “AATCATGCAATAAAATAAACTTCGTTTTGCGTGGCAGGAGCGGAGTCACCTAGTGCAG” here?
A: The binding signal was 4630 fluorescence intensity (a.u.).

Q: With “TAGCATTCGCAACGTGTATACTCAACTGTCAACTTTGTGGCGGAGTCACCTAGTGCAG” as the sequence, how does the binding signal read?
A: Its binding signal is 3680 fluorescence intensity (a.u.).

Q: Which binding signal does the source give for “ATCTAGCATGGCCATCTTGCGGTGGCAAGCCGCTGCCGGACGGAGTCACCTAGTGCAG” here?
A: Its binding signal is 3390 fluorescence intensity (a.u.).

Q: “ACTACATATGTAATTTTATAACTTACATATGTAATTTTAGCGGAGTCACCTAGTGCAG” was tested. Which binding signal did it give?
A: The binding signal was 17400 fluorescence intensity (a.u.).

Q: How did the binding signal turn out when “CATCTTGTAACAATTTGACCGGTGACCTCGTGGCAAGCAACGGAGTCACCTAGTGCAG” was run?
A: Its binding signal is 3690 fluorescence intensity (a.u.).

Q: How did the binding signal turn out when “CCTTAGACCTTCTGGATTACATCGTAAGCTGGCTTCTCCTCGGAGTCACCTAGTGCAG” was run?
A: Its binding signal is 3490 fluorescence intensity (a.u.).

Q: For “CGTCAAACAGAAAATATGGAGAGAGAACTAATCGGGGTAACGGAGTCACCTAGTGCAG”, which binding signal is on record?
A: The binding signal was 4520 fluorescence intensity (a.u.).

Q: Which binding signal does the source give for “CGGTTTGCCGGCGGCCGACGTGGCCGGCCTCGCAGCGGCACGGAGTCACCTAGTGCAG” here?
A: The binding signal was 7440 fluorescence intensity (a.u.).

Q: Which binding signal does the source give for “TCTGGATCGAATTGCCACGTAAACGCCACGTCAATGCCACCGGAGTCACCTAGTGCAG” here?
A: Its binding signal is 25100 fluorescence intensity (a.u.).

Q: With “AAACGTCGCCCGGTCCGACGTGGGAGAAGCATGGACCGTCCGGAGTCACCTAGTGCAG” as the sequence, how does the binding signal read?
A: The binding signal was 4760 fluorescence intensity (a.u.).

Q: Which binding signal does the source give for “GTGCGCTTGCGGTTGCCGCTCCAGTGAGCTGGACGACGTCCGGAGTCACCTAGTGCAG” here?
A: The binding signal was 4820 fluorescence intensity (a.u.).
